Measurements from patent US10513567B2, “Polycations and methods of making and using thereof” (Georgia Tech Research Corporation, priority 2016, dated 2019).
Some of these results come from one statement about several compounds together.

System: CHO-K1 cells
Test: Viability of CHO-K1 cells with WCL monomers and polymers (MTT assay)
Format: cell-based

Row | Compound | concentrations found nontoxic
1 | c1cc(CCCc2ccncc2)ccn1 [Compound 2a] | below 500 μM
2 | O=C(OCCCOC(=O)c1ccncc1)c1ccncc1 [Compound 2c] | below 500 μM
3 | Brc1cncc(OCCCOc2cncc(Br)c2)c1 [Compound 2i, 1,3-bis((5-bromopyridin-3-yl)oxy)propane] | below 500 μM
